# These are yes or no findings as the source states them, for the method shown. Some binding calls cover weakened binding; strength is not graded here.
# Sequences of proteins named here, by UniProt entry; tags and fusion partners are left off. Residues count along the entry.
# UniProt P09874, residues 662-1011: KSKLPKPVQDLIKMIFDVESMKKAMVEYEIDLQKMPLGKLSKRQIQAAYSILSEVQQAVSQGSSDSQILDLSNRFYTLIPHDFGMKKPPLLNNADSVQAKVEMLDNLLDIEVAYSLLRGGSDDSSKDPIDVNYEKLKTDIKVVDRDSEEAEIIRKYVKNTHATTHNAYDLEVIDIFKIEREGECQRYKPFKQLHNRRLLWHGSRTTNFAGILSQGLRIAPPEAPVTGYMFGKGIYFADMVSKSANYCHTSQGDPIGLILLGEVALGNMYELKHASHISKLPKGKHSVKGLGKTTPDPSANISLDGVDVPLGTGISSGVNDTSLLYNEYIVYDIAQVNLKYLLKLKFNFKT
# Target: PARP1 auto-MAR- and -PARylated in the presence of HPF1 (UniProt P09874)
# Assay: far-Western, overlay or dot blot; overlay in multiwell plates: MAR- or PARylated protein adsorbed to protein binding 96-well plates (MaxiSorp), blocked with 1% BSA, overlaid with the macrodomain-GFP fusion (1 µM in Fig. 2) in TBST pH 7.5 for 5 min at room temperature, washed, GFP fluorescence read; both purified
binder,measurement,value
"MacroGreen (Af1521-c007), Af1521 K35E,G42E,I144R,Y145R fused to GFP (other, Archaeoglobus fulgidus, UniProt O28751 1-192, looked up, Archaeoglobus fulgidus macrodomain protein Af1521, full length, with K35E, G42E, I144R, Y145R; Synthetic codon-optimised cDNA in a pNIC28 derived vector; also called GFP-fusion quadruple mutant; source: E. coli BL21(DE3)T1R pRARE2, purified (IMAC, SEC); not shown: eGFP, C-terminal, kept) MEVLFEAKVGDITLKLAQGDITQYPAKAIVNAANERLEHGGEVAYAIAKACAGDAGLYTEISKKAMREQFGRDYIDHGEVVVTPAMNLEERGIKYVFHTVGPICSGMWSEELKEKLYKAFLGPLEKAEEMGVESIAFPAVSAGRRGCDLEKVVETFLEAVKNFKGSAVKEVALVIYDRKSAEVALKVFERSL",binding,binds
